This is a selection; strong and weak results do not stand in their true shares. The calls were merged from several studies; some rest on single wells. The list shows a part of the results.
What was measured:
Settings in all cases: stereoisomer not certain
OR52N5 (Homo sapiens) = target: T1, OR52N5 (Homo sapiens) (UniProt Q8NH56)
T1 sequence (whole entry): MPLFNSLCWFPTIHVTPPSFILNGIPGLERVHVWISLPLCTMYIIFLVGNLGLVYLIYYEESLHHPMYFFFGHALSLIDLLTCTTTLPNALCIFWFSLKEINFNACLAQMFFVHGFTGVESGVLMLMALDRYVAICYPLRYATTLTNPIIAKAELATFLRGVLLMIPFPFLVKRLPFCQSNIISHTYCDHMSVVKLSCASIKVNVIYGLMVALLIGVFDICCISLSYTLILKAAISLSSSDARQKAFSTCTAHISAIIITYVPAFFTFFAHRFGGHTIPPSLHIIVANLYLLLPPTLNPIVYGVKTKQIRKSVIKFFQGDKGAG
Procedure, shortened: (§1)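 Values were gathered from published papers (main text and supplementary material), with extra details requested from the original authors when needed, and checked for typos and inconsistencies. Each receptor–molecule pair is called responsive (active) if the original authors judged the measured signal statistically different from baseline, and non-responsive (inactive) otherwise. Assay methods varied by source, often transient mammalian cell-line luciferase assays. Recorded details include cell line, G-protein, co-transfected protein and tags.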

OR56A1 (Homo sapiens) = target: T2, OR56A1 (Homo sapiens) (UniProt Q8NGH5)
T2 sequence (whole entry): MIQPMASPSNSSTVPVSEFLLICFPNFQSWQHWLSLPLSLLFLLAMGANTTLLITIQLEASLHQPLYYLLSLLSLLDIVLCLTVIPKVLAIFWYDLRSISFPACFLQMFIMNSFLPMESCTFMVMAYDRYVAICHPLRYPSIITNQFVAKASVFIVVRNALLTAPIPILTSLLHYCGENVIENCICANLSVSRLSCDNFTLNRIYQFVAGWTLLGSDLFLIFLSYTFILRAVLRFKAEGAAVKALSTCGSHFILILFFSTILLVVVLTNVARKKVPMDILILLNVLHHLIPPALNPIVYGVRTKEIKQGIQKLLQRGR
Procedure, shortened: as §1

OR56A4 (Homo sapiens) = target: T3, OR56A4 (Homo sapiens) (UniProt Q8NGH8)
T3 sequence (whole entry): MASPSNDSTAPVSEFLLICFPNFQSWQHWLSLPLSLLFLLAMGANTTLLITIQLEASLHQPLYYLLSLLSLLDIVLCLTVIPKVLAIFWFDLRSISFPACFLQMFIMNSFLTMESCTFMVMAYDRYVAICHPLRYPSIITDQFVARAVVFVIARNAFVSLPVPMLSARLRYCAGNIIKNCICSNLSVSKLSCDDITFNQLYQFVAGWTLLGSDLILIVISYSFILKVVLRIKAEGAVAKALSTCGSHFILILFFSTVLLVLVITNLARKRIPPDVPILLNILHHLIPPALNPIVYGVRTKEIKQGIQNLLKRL
Procedure, shortened: as §1

OR56A5 (Homo sapiens) = target: T4, OR56A5 (Homo sapiens) (UniProt P0C7T3)
T4 sequence (whole entry): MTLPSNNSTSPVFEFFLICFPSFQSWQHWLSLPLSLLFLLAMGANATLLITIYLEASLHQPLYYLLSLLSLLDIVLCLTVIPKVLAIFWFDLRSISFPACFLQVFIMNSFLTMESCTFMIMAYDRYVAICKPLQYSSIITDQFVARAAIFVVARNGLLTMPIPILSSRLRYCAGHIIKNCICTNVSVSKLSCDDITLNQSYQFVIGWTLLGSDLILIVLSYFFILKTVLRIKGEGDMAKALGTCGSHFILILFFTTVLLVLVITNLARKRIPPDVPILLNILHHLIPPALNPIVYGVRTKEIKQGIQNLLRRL
Procedure, shortened: as §1

OR5A1 [1] = test system: T5, OR5A1
T5 sequence (whole entry): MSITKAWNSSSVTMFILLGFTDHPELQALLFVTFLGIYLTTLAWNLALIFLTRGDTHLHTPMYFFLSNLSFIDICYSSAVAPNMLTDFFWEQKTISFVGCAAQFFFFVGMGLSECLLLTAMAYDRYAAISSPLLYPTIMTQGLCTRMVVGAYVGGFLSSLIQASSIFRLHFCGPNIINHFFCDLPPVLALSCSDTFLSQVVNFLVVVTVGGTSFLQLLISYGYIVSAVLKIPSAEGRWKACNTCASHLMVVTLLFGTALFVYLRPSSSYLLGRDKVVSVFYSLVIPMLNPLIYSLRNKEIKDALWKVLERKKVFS
Procedure, shortened: as §1

OR5A1 [2] = test system: T6, OR5A1; remark: listed apart in the source
T6 sequence (whole entry): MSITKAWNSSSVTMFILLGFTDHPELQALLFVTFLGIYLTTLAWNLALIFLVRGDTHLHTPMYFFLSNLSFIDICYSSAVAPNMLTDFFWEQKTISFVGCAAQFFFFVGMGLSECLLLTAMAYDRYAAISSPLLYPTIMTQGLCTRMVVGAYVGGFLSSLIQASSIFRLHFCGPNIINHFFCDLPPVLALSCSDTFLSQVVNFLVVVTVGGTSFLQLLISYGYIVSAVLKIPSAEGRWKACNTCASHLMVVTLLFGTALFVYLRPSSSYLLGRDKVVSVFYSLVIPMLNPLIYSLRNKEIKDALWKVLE
Procedure, shortened: as §1

OR5A1 [3] = test system: T7, OR5A1; remark: listed apart in the source
T7 sequence (whole entry): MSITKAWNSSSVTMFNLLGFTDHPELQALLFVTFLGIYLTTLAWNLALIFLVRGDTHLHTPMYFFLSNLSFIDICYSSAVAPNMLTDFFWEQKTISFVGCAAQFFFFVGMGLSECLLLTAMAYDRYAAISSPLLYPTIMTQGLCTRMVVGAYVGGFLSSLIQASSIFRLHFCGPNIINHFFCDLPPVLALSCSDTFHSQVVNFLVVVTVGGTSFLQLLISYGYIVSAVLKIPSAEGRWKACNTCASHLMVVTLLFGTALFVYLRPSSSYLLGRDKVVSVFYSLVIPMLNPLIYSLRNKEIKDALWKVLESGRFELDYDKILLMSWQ
Procedure, shortened: as §1

OR5A2 (Homo sapiens) = target: T8, OR5A2 (Homo sapiens) (UniProt Q8NGI9)
T8 sequence (whole entry): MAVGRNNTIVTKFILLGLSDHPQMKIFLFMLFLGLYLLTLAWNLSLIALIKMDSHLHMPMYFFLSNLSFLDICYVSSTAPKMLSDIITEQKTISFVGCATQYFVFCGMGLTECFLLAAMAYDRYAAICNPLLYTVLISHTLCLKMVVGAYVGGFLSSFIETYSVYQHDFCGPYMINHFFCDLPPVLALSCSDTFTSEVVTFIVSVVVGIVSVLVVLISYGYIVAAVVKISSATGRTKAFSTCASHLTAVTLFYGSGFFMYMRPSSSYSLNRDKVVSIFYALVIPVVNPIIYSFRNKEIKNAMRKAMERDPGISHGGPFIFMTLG
Procedure, shortened: as §1

OR5AK2 (Homo sapiens) = target: T9, OR5AK2 (Homo sapiens) (UniProt Q8NH90)
T9 sequence (whole entry): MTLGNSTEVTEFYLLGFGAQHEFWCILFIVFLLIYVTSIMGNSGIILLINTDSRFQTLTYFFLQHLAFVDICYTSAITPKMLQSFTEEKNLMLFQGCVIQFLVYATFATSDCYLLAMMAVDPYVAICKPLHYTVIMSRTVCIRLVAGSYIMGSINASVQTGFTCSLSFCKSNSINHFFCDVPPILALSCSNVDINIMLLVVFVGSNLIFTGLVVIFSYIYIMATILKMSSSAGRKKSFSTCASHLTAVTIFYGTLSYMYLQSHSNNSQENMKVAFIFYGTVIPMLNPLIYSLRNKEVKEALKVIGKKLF
Procedure, shortened: as §1

| Structure (SMILES) | odorant receptor agonist call (OR52N5 (Homo sapiens)) | odorant receptor agonist call (OR56A1 (Homo sapiens)) | odorant receptor agonist call (OR56A4 (Homo sapiens)) | odorant receptor agonist call (OR56A5 (Homo sapiens)) | odorant receptor agonist call (OR5A1 [1]) | odorant receptor agonist call (OR5A1 [2]) | odorant receptor agonist call (OR5A1 [3]) | odorant receptor agonist call (OR5A2 (Homo sapiens)) | odorant receptor agonist call (OR5AK2 (Homo sapiens)) |
| --- | --- | --- | --- | --- | --- | --- | --- | --- | --- |
| CC=Cc1ccc(O)c(OC)c1 | active | inactive | active | active | inactive | inactive | inactive | inactive | inactive |
| CCCCCCCC=CC=O | inactive | inactive | active | inactive | inactive | inactive | inactive | inactive | inactive |
| COc1cc(C=O)ccc1O | inactive | inactive | inactive | inactive | inactive | inactive | inactive | inactive | inactive |
| CC1CCC(C(C)C)C(O)C1 (centres undefined) | inactive | inactive | inactive | inactive | active | inactive | inactive | inactive | inactive |
| O=C1CCCCCCCCCCCC(=O)OCCO1 | active | inactive | active | active | inactive | inactive | inactive | inactive | inactive |
| CC(C)C(=O)O | inactive | inactive | inactive | active | inactive | inactive | inactive | inactive | inactive |
